Patent US20200347127A1
No constants are given. Whether binding was seen depends on the method and setting. For some assays here: A result given as binding can be weak or reduced; the word gives no strength. Where a sequence is shown, tags or fusion partners need not be part of it.

How the values were obtained:
Assay in all cases: specificity ELISA on coated antigen, VH concentration not given
[1] = molecular target: KLH
[2] = molecular target: IL17D
[3] = molecular target: cynoIL17 (cynomolgus monkey)
[4] = molecular target: IL17B

Binder | binding [1] | binding [2] | binding [3] | binding [4]
VH 1.1.1 (clone 1.1 expressed from phagemid vector: with linker residues and His tag) (VHH) VHH: EVQLVESGGGLVQPGGSLRLSCAASGFTFSSYSMYWVRQAPGKGLEWVANIKQDGSEKYYVDSVKGRFTISRDNAKNSLFLQMNSLRAEDTAVYYCAKGEILPLHFDYWGQGTLVTVSS | no binding | no binding | binds | no binding
VH 1.10.1 (clone 1.10 expressed from phagemid vector: with linker residues and His tag) (VHH) VHH: EVQLVESGGGLVQPGGSLRLSCAASGFTFSSYRMYWVRQAPGKGLEWVASIEQDGSEEYYVDSVKGRFTISRDNAKKSLFLQMNSLRAEDTAVYYCAKGEILPLYFDYWGQGTLVTVSS | no binding | no binding | binds | no binding
VH 1.6.1 (clone 1.6 expressed from phagemid vector: with linker residues and His tag) (VHH) VHH: EVQLVESGGGLVQPGGSLRLSCAASGFTFSSYSMYWVRQAPGKGLEWVAEIKQDGSEQYYVDSVKGRFTISRDNAKNSLYLQMNSLRAEDTAVYYCAKGEILPLYFDYWGQGTLVTVSS | no binding | no binding | binds | no binding
VH 1.20.1 (clone 1.20 expressed from phagemid vector: with linker residues and His tag) (VHH) VHH: EVQLVESGGGLVQPGGSLRLSCAASGFTFSSYGMYWVRQAPGKGLEWVAKIEQDGSEEYYADSVKGRFTISRDNAKKSLYLQMNSLRAEDTAVYYCAKGEILPLYFDYWGQGTLVTVSS | no binding |  |  | 
Clone 1.15 (VHH) VHH: EVQLVESGGGLVQPGGSLRLSCAASGFTFSSYSMYWVRQAPGKGLEWVAEIRQDGSEQYYVDSVKGRFTISRDNAKNSLYLQMNSLRAEDTAVYYCAKGEILPLYFDYWGQGTLVTVSS | no binding |  |  | 
VH 1.19.1 (clone 1.19 expressed from phagemid vector: with linker residues and His tag) (VHH) VHH: EVQLVESGGGLVQPGGSLRLSCATSGFTFSSYGMYWVRQAPGKGLEWVAEIKQDGSEKYYVDSVKGRFTISRDNAKNSLYLQMNSLRAEDTAVYYCAKGEILPLYFDYWGQGTLVTVSS | no binding |  |  | 
VH 1.3.1 (clone 1.3 expressed from phagemid vector: with linker residues and His tag) (VHH) VHH: EVQLVESGGGLVQPGGSLRLSCAASGFTFSSYSMYWVRQAPGKGLEWVAEIKQDGSVQYYVDSVKGRFTISRDNAKNSLYLQMNSLRAEDTAVYYCAKGEILPLYFDYWGQGTLVTVSS | no binding |  |  | 
VH 1.16.1 (clone 1.16 expressed from phagemid vector: with linker residues and His tag) (VHH) VHH: EVQLVESGGGLVQPGGSLRLSCAASGFTFSSYSMYWVRQAPGKGLEWVAEIKQDGSEQYYVDSVKGRFTISRDNAKNSLYLQMNGLRAEDTAVYYCAKGEILPLYFDYWGQGTLVTVSS | no binding |  |  | 
